# Measured values published in PubChem BioAssay AID1347076 (National Center for Advancing Translational Sciences (NCATS), 2019).
# Out of some 400,000 compounds screened, about 13,000 (3.2%) were called active. Inconclusive results, whose numbers are uncertain, are shown with a selection of clear calls. The call rests on the fitted dose curve; in most records, active means well fitted cell-killing curve with a large enough effect; inconclusive means small, poorly fitted or top-dose-only effect, or effect the other way; inactive means flat fitted curve, though single readings scatter. Potencies beside an inconclusive call are fits to weak or partial responses and may not hold up.
# Test: qHTS assay for MDR1-selective chemotherapeutics: Primary screen using the drug-selected MDR subline cells KB-V1; further: nearly all actives have a fitted effect of over 60% in size
# Details: KB-V1 MDR cells viability, CellTiter-Glo, 72 h; series mostly up to 46.1 µM
# Text: A prime difficulty in effectively treating cancer is the development of cellular resistance to multiple structurally unrelated anticancer drugs, a phenomenon known as multidrug resistance (MDR). […] Numerous strategies to overcome P-gp-mediated MDR have been explored, including the design of drugs that evade recognition and efflux, and development of inhibitors to block efflux and restore drug accumulation. […] An alternative approach is to exploit resistance by identifying drugs that target MDR cells over the non-resistant parental cells from which they were selected. […] The development of MDR1-selective agents represents a new strategy for resolving multidrug resistance, as it remains a long-standing clinical challenge for cancer chemotherapy.
# Our goal is to identify compounds that selectively kill P-gp-expressing MDR cells. We will identify MDR1-selective compounds by comparing toxicity of compounds in the screening library against parental, drug-naive (KB-3-1) adenocarcinoma cells as well as their drug-selected MDR sub-line (KB-V1). The differential toxicity of compounds against these two cell lines will be used to identify MDR1-selective compounds, whose cytotoxicity is potentiated, rather than diminished, by P-gp expression. This assay will be utilized to conduct a quantitative high-throughput screen (qHTS) in collaboration with the NIH Chemical Genomics Center to identify selective agents, and probe hits arising from the screen will be validated using secondary assays and characterized through a well-established follow-up research program. This screen was run against the entire NCGC library collection of about 400,000 compounds.
# NIH Molecular Libraries Probe Production Network [MLPCN]
# NIH Chemical Genomics Center [NCGC]
# PI: Michael Gottesman, National Cancer Institute, NIH
# Briefly, 5 microL of media containing either KB-V1 cells (columns 1-2, 4-48) are dispensed into Greiner white, treated solid-bottom 1536-well assay plates (media-only control is added to column 3). Compounds are then transferred via Kalypsys pin tool equipped with 1536-pin array (10 nL slotted pins, V&P Scientific, San Diego, CA). Following addition of compound, the plates are incubated at 37 degrees C for 72 hours. CellTiter-Glo (2.5 µL/well) is then added, and the plates are read in a ViewLux reader (Perkin-Elmer, clear luminescence filter, 1 second exposure, 1x binning) following a 10 minute incubation. All cells are dispensed in DMEM phenol-red free media containing 10% FBS.
# Library plates were screened starting from the lowest and proceeding to the highest concentration. Vehicle-only plates, with DMSO being pin-transferred to columns 5-48, will be inserted uniformly at the beginning and the end of each library in order to monitor and record any shifts in the background, which can be affected by reagent dispensers or loss in enzyme activity over time. Screening data will be corrected, normalized, and concentration-effect relationships will be derived by using publicly-available NCGC, NCATS curve fitting algorithms (http://ncgc.nih.gov/pub/openhts).
# Potency means the concentration at half of the fitted maximal effect.
row,Structure (SMILES),Potency
1,COc1cccc(CN(C)C(=O)CCN=C2NS(=O)(=O)c3ccccc32)c1,"inconclusive: 29.1 µM [rising, single point]"
2,COc1cc(C(CCN2CCCC(C)C2)c2c(OC)cc(OC)c3c2OC(=O)CC3c2ccc(N(C)C)cc2)cc(OC)c1OC (configuration not stated),"inconclusive: 18.4 µM [cytotoxic, partial curve]"
3,COC(=O)NCN1C(=O)C2C3C=CC(C3)C2C1=O (configuration not stated),"inconclusive: 29.1 µM [rising, single point]"
4,CCOc1ccccc1N1CCN(C(=O)c2ccc(Cl)c(S(=O)(=O)N3CCCCC3)c2)CC1,active: 7.31 µM
5,COc1ccccc1NC(=O)C(=O)N/N=C/c1ccc([N+](=O)[O-])s1,"inconclusive: 6.51 µM [rising, partial curve, poor fit]"
6,COc1ccc(C2=C(C)C(N3CCC(C(=O)Nc4ccccc4F)CC3)=NS2(=O)=O)cc1,inactive
7,COc1ccc(NC(=O)c2ccc(=O)[nH]c2)cc1S(=O)(=O)N1CCOCC1,"inconclusive: 13 µM [rising, partial curve, poor fit]"
8,CCC(C(=O)NCCc1ccccc1)n1nc(C)c2sc3ccccc3c2c1=O (configuration not stated),"inconclusive: 29.1 µM [cytotoxic, single point]"
9,COCCn1nnnc1C(c1cc2cc(C)cc(C)c2[nH]c1=O)N1CCN(c2ccccc2F)CC1 (configuration not stated),active: 23.1 µM
10,CCn1c(CNC(=O)Cc2ccc(OC)cc2)n[nH]c1=S,"inconclusive: 25.9 µM [rising, single point]"
11,CCCCC[C@@H]1[C@@H]2C(=C(OCC)C[C@@H]3C(=O)N(c4ccccc4)C(=O)[C@H]23)[C@H](c2ccccc2)N1S(=O)(=O)c1ccc(C)cc1,inactive
12,CC(C)(C)OC(=O)N/N=C\C=C\c1ccc2c(c1)OCO2,"inconclusive: 0.0411 µM [rising, full curve, poor fit]"
13,Cc1ccc(CN(Cc2ccco2)C(=S)NCC(=O)NCc2cccnc2)cc1,"inconclusive: 13 µM [cytotoxic, partial curve]"
15,COC(=O)C1=CN(c2ccc(C(C)(C)C)cc2)C(N)=C(C#N)C1c1ccc(OC)cc1 (configuration not stated),"inconclusive: 5.8 µM [cytotoxic, partial curve]"
16,CC(C)Nc1c(N)c(=O)oc2ccccc12,"inconclusive: 23.1 µM [cytotoxic, partial curve, poor fit]"
17,COC(=O)CSC1=C(C#N)C(c2cccc(OC)c2)CC(=O)N1 (configuration not stated),"inconclusive: 29.1 µM [cytotoxic, single point]"
18,CCOc1cc(C(=O)Nc2ccc3nc(Nc4cccc(Cl)c4)cc(C)c3c2)cc(OCC)c1OCC,inactive
19,C=CCC[C@H](Cc1ccc(F)cc1)C(=O)OC[C@@H](Cc1c[nH]c2ccccc12)NC(=O)[C@@H](CC=C)CC(=O)N(CCO)Cc1ccccc1,"inconclusive: 32.6 µM [cytotoxic, single point]"
20,CCCCCCNc1nc2c(c(=O)n(C)c(=O)n2C)n1Cc1cccc(C)c1,"inconclusive: 1.84 µM [cytotoxic, full curve]"
21,CNC(=O)[C@@]1(Cc2ccccc2)C=C[C@@H](C)N1C(=O)OC,inactive

row,Structure (SMILES),Potency
1,CC(C)C(c1nnnn1C(C)(C)C)N1CCC(Cc2ccccc2)CC1 (configuration not stated),"inconclusive: 20.6 µM [cytotoxic, single point]"
2,CC1Cc2[nH][nH]c(=O)c2C(C2CC2)O1 (configuration not stated),"inconclusive: 18.4 µM [rising, single point]"
3,CCCC(=O)NC(c1ccc(C)cc1)c1ccc2cccnc2c1O (configuration not stated),active: 3.66 µM
4,OCC1(Cc2cccc(C(F)(F)F)c2)CCN(Cc2cc3ccccc3o2)CC1,"inconclusive: 16.4 µM [cytotoxic, partial curve]"
5,Cc1ccc(S(=O)(=O)Nc2cccc(C(=O)NCC(c3ccco3)N3CCCCC3)c2)cc1F (configuration not stated),"inconclusive: 8.2 µM [cytotoxic, partial curve]"
6,COc1ccc(-c2nc(C(N)=O)c3[nH]c(=O)n(-c4cccc(Cl)c4)c3n2)cc1OC,active: 7.31 µM
7,Cc1ccc(CN2CCN(/N=C/c3cccnc3)CC2)cc1,"inconclusive: 20.6 µM [cytotoxic, partial curve]"
8,O=S(=O)(NCC(c1cccnc1)N1CCN(c2ccc(F)cc2)CC1)c1cc(F)ccc1F (configuration not stated),"inconclusive: 16.4 µM [cytotoxic, single point]"
9,COc1ccc(/C=C/C(=O)OCC(=O)Nc2cc(C(F)(F)F)ccc2Cl)cc1,"inconclusive: 7.31 µM [cytotoxic, partial curve, poor fit]"
10,Cc1cccc(Sc2c(C=O)c3ccccc3n2C)c1,inactive
11,COc1cccc(CN(C(=O)COc2ccc(Cl)cc2)C2CCS(=O)(=O)C2)c1 (configuration not stated),inactive
12,Cc1cc(C)cc(NC(=O)CCc2c(C)nn(-c3ccc(N4CCCCC4)nn3)c2C)c1,"inconclusive: 16.4 µM [cytotoxic, partial curve, poor fit]"
13,Cc1cccc(CCNC(=O)C2CCC(CNS(=O)(=O)c3ccccc3)CC2)c1 (configuration not stated),inactive
14,O=C(CCSc1ccc(Cl)cc1)c1ccco1,"inconclusive: 25.9 µM [rising, single point]"
15,O=C(CN1C(=O)COc2ccccc21)NCCCN1CCOCC1,"inconclusive: 20.6 µM [rising, single point]"
16,O=C(N/N=C/c1ccco1)c1ccc(NC(=O)c2ccc(Cl)cc2)cc1,inactive
17,CCC1CCCCN1C(=O)CN1C(=O)CSC1=O (configuration not stated),"inconclusive: 16.4 µM [rising, single point]"
18,CCc1ccc2nc(NC(=O)c3cc(C)on3)sc2c1,active: 8.2 µM
19,COc1cc(NC(=O)c2ccco2)c(OC)cc1NC(=O)CSc1nnc(-c2cccs2)n1C,"inconclusive: 2.91 µM [cytotoxic, full curve, poor fit]"
20,CCOc1cc(-c2cc(-c3ccc(N)cc3)nc(N)c2C#N)ccc1O,"inconclusive: 29.1 µM [cytotoxic, single point]"
21,Cc1ccccc1NC(=S)NCc1ccc(F)cc1,"inconclusive: 32.6 µM [cytotoxic, single point]"
